# PubChem BioAssay AID1053208 – Peter MacCallum Cancer Centre, 2014
# Aim: 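Synthetic lethal interactions between gene loss and doxorubicin in osteosarcoma cells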 (primary screen)
# Cell system: mouse osteosarcoma cells, early-passage culture from an engineered mouse model of fibroblastic bone tumour
# Reagent: siRNA pool against mouse genes, 40 nM
# Timing: about 120 h (48 h before drug, then 72 h with drug)
# Treatment: doxorubicin 100 nM for 72 h, roughly 30-40% inhibitory dose
# Measured: 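Luminescent ATP signal taken as viability with or without 100 nM doxorubicin for 72 h; mean of two wells set against non-targeting siRNA and turned into robust z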
# Scale: viability z-score with doxorubicin and doxorubicin viability vs non-targeting: higher = more viable cells under doxorubicin; viability z-score without drug: higher = more viable cells with knock-down alone; z-score of drug to no-drug ratio: higher = less drug sensitisation by knock-down
# Active means: 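a pool counts as active when its viability z-score with doxorubicin is -2 or below and its z-score without drug lies between -2 and 2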
# Shown is a random part of about 17,000 reagents tested. 788 of them (4.7%) were called active. 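Calls rest on z-score classes alone; an extra cut-off of viability at most 70% of control was not applied to them.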 A number with no mark means an inactive call.
The first 3 entries, ahead of the listing:
gene symbol,combined z-score class,viability z-score with doxorubicin,viability z-score without drug,z-score of drug to no-drug ratio,doxorubicin viability vs non-targeting
Rnf139,no change with or without drug,1.12,0.51,0.9,1.04
Sptbn1,high cell count without drug only,-1.01,3.71,-2.81,0.85
Vmn1r41,no change with or without drug,1.12,1.85,0,1.04

The listing, from the start:
gene symbol,combined z-score class,viability z-score with doxorubicin,viability z-score without drug,z-score of drug to no-drug ratio,doxorubicin viability vs non-targeting
Rnf139,no change with or without drug,1.12,0.51,0.9,1.04
Sptbn1,high cell count without drug only,-1.01,3.71,-2.81,0.85
Vmn1r41,no change with or without drug,1.12,1.85,0,1.04
Dpm2,no change with or without drug,0.45,1.18,-0.22,0.98
Esyt3,no change with or without drug,-0.22,1.52,-1.12,0.92
Ssty2,high cell count with and without drug,2.59,2.19,1.12,1.17
Or4k52,no change with or without drug,1.01,0.17,1.01,1.03
Nradd,no change with or without drug,1.57,0.17,1.69,1.08
Gm5069,high cell count without drug only,1.24,2.53,-0.34,1.05
Ncapd3,no change with or without drug,0,0.34,-0.11,0.94
Cebpg,no change with or without drug,0.22,1.18,-0.45,0.96
Pld2,no change with or without drug,-0.79,-0.17,-0.56,0.87
Cd55b,no change with or without drug,0.45,0.34,0.34,0.98
Aadac,no change with or without drug,-0.34,-1.52,0.9,0.91
Galnt11,no change with or without drug,0.22,-0.34,0.56,0.96
Cenpm,no change with or without drug,0.34,0.51,0.11,0.97
Pcdhgc3,no change with or without drug,-1.57,0,-1.57,0.8
Lrsam1,low cell count without drug only,-1.8,-2.02,-0.45,0.78
Fndc10,no change with or without drug,-0.45,-1.18,0.45,0.9
Rogdi,no change with or without drug,1.57,1.01,1.01,1.08
Wdfy1,high cell count without drug only,1.57,2.19,0.22,1.08
Vmn2r7,no change with or without drug,-0.22,0.51,-0.45,0.92
Tia1,no change with or without drug,-1.12,-0.17,-1.01,0.84
Nrg4,no change with or without drug,-0.45,0.34,-0.56,0.9
Calhm5,no change with or without drug,1.8,-0.51,2.47,1.1
Trmt10b,no change with or without drug,-1.12,0.51,-1.35,0.84
Srr,no change with or without drug,1.12,0.34,1.01,1.04
Acsl4,no change with or without drug,-0.9,0.34,-1.01,0.86
Scamp2,no change with or without drug,1.46,-0.34,1.91,1.07
Serpinb5,no change with or without drug,0.56,1.18,-0.11,0.99
Aacs,no change with or without drug,0.34,-0.84,1.12,0.97
Fezf2,no change with or without drug,0,1.52,-0.9,0.94
Sycn,no change with or without drug,0,0.17,0,0.94
Ptges3,low cell count with doxorubicin only (active),-2.59,-0.51,-2.36,0.71
